For at least one compound, name, drawing or mass did not settle the structure.
System: rekombinantes FV-Fragment des Phosphorylcholin-bindenden Antikörper-Myelom-Proteins McPC603 (VL + VH, in E. coli hergestellt)
Experiment: Equilibrium dialysis, affinity constant of the recombinant FV fragment
Type: binding, Maus
Conditions: BBS-Puffer pH 8,0, 22 Stunden bei Raumtemperatur, Scatchard plot, 14C-labelled hapten

C[N+](C)(C)CCOP(=O)([O-])O [Phosphorylcholin]
Affinitätskonstante Ka: 1,21 ± 0,06 x 10⁵ M⁻¹

Reference: EP0324162A1, “Method of producing antibodies by genetic engineering” (Plückthun, Andreas, Dr., priority 1987, dated 1989)
